The results in this text go back to publication PMC12406255 (Journal of Medicinal Chemistry, 2025).

Some peptides are written in HELM: one residue between dots, names in brackets for other building blocks, links after the first $. The same purity stands for every peptide and may come from a single statement.

A short description of this data set: general procedure: Fmoc solid-phase peptide synthesis; Rink amide resin (VhTI-pepitem grafts). The note with it: whole synthesis, 214 nm.
For “PEPTIDE1{S.V.T.E.Q.G.A.E.L.S.N.E.E.R}$$$$V2.0”, the “final HPLC purity” value is more than 95%. The result for “PEPTIDE1{[ac].E.Q.C.K.V.[Nle].C.Y.A.Q.G.A.E.L.P.E.L.L.R.R.C.L.D.N.C.E.K.[am]}$PEPTIDE1,PEPTIDE1,4:R3-26:R3|PEPTIDE1,PEPTIDE1,8:R3-22:R3$$$V2.0” reads more than 95%; that for “PEPTIDE1{[ac].E.Q.C.K.V.[Nle].C.Y.A.Q.G.A.E.L.S.P.E.L.L.R.R.C.L.D.N.C.E.K.[am]}$PEPTIDE1,PEPTIDE1,4:R3-27:R3|PEPTIDE1,PEPTIDE1,8:R3-23:R3$$$V2.0”, more than 95%. The result for “PEPTIDE1{[ac].E.Q.C.K.V.[Nle].C.Y.A.Q.R.H.S.S.P.E.L.L.R.R.C.L.D.N.C.E.K.[am]}$PEPTIDE1,PEPTIDE1,4:R3-26:R3|PEPTIDE1,PEPTIDE1,8:R3-22:R3$$$V2.0” reads more than 95%. As to “PEPTIDE1{[ac].E.Q.C.K.V.[Nle].C.Y.E.Q.G.A.E.L.P.E.L.L.R.R.C.L.D.N.C.E.K.[am]}$PEPTIDE1,PEPTIDE1,4:R3-26:R3|PEPTIDE1,PEPTIDE1,8:R3-22:R3$$$V2.0”, the “final HPLC purity” value is recorded as more than 95%.

Take “PEPTIDE1{[ac].E.Q.C.K.V.[Nle].C.Y.E.Q.G.A.L.S.P.E.L.L.R.R.C.L.D.N.C.E.K.[am]}$PEPTIDE1,PEPTIDE1,4:R3-26:R3|PEPTIDE1,PEPTIDE1,8:R3-22:R3$$$V2.0”: the “final HPLC purity” value was more than 95%. To “PEPTIDE1{[ac].E.Q.C.K.V.[Nle].C.Y.Q.G.A.E.L.S.P.E.L.L.R.R.C.L.D.N.C.E.K.[am]}$PEPTIDE1,PEPTIDE1,4:R3-26:R3|PEPTIDE1,PEPTIDE1,8:R3-22:R3$$$V2.0” belongs more than 95%.

With “PEPTIDE1{[ac].E.Q.C.S.V.T.C.E.Q.G.A.E.L.P.S.N.E.E.R.C.L.D.N.C.E.K.[am]}$PEPTIDE1,PEPTIDE1,4:R3-25:R3|PEPTIDE1,PEPTIDE1,8:R3-21:R3$$$V2.0”, the “final HPLC purity” value is given as more than 95%.
